These are yes or no findings as the source states them, for the method shown. In cells and extracts the contact can be indirect. Some results given as binding are weak or reduced against the parent protein; the word gives no strength.
Columns and labels:
[1] = molecular target: UTX wildtype (UTX^WT, pFLAG-UTX) expressed in HEK293T cells (human) (UniProt O15550); test: co-IP; HEK293T cells co-transfected with tagged G3BP1 and UTX constructs; lysates in IP buffer incubated with specific antibodies and Dynabeads Protein G overnight at 4 °C; immunoblot
[2] = molecular target: UTX (ubiquitously transcribed tetratricopeptide repeat on chromosome X), endogenous in Huh7 cells (human (endogenous in Huh7)) (UniProt O15550); test: co-IP; endogenous proteins; cytoplasmic fraction (text: RG fraction) of Huh7 cells, control or TG- or SA-treated, immunoprecipitated with UTX antibody; immunoblot
[3] = molecular target: GB-UTX (ddGB-UTX) (human) (UniProt O15550); test: split reporter; dimerization-dependent fluorescent protein (ddFP) system; live HepG2 cells transiently transfected with GA-G3BP1, GB-UTX and RFP-TIA1; untreated
[4] = molecular target: GB-UTX (ddGB-UTX) (human) (UniProt O15550); test: split reporter; dimerization-dependent fluorescent protein (ddFP) system; live HepG2 cells transiently transfected with GA-G3BP1, GB-UTX and RFP-TIA1; treated with TG (5 µM, 4 h) or SA (500 µM, 1 h)

Amino acid sequences for entries named in this document (tags omitted).
UniProt O15550: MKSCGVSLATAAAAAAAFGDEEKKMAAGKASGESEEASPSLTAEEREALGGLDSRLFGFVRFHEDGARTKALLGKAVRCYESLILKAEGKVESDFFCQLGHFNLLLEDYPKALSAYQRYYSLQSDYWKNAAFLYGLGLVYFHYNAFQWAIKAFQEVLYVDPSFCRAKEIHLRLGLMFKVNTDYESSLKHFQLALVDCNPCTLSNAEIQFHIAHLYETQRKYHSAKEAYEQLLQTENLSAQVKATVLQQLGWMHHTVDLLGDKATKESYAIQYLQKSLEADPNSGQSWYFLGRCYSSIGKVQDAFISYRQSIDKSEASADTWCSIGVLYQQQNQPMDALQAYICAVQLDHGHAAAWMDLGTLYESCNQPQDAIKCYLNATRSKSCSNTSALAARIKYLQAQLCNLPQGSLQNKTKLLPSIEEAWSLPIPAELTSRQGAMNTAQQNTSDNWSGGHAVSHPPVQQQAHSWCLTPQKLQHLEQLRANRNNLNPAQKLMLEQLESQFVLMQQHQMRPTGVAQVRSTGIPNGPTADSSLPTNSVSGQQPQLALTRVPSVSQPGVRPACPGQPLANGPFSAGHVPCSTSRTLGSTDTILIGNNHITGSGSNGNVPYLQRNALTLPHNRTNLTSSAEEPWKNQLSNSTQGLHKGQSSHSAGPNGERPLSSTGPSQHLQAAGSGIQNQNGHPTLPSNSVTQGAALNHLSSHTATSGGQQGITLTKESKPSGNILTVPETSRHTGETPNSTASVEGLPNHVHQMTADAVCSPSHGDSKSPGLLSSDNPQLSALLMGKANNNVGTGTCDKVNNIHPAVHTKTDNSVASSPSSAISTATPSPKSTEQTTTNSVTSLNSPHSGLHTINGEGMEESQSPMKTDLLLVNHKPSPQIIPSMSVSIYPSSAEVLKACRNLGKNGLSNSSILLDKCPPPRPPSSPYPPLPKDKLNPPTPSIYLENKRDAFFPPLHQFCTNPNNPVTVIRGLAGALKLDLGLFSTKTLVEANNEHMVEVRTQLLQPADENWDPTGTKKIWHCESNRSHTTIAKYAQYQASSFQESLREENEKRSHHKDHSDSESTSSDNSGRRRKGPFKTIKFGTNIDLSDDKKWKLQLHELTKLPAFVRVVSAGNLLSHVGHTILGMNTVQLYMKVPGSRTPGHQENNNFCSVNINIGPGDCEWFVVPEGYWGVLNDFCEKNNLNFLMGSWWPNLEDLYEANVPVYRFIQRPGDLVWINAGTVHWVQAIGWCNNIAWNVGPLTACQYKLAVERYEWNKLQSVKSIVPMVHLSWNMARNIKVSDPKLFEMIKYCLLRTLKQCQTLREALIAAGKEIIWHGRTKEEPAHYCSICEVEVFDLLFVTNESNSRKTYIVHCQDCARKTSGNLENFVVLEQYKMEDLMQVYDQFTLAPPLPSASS

With “EGFP-tagged G3BP1 (pEGFP-G3BP1) (from UniProt Q13283 1-466)” the binding [1] was “binds”.

With “G3BP1 (GTPase-activating protein SH3 domain-binding protein 1), endogenous in Huh7 cells (from UniProt Q13283 1-466)” the binding [2] was “binds”.

In the case of “GA-G3BP1 (ddGA(GFPA)-G3BP1) (from UniProt Q13283 1-466)”, the binding [3] is reported as “no binding (condition: untreated cells (without TG or SA))” and the binding [4] is reported as “binds”.

From paper PMC12442641
